# Assay results reported in publication PMC11144269.
# By UniProt entry, the sequences of proteins in these tests, tags left out.
# UniProt P09874: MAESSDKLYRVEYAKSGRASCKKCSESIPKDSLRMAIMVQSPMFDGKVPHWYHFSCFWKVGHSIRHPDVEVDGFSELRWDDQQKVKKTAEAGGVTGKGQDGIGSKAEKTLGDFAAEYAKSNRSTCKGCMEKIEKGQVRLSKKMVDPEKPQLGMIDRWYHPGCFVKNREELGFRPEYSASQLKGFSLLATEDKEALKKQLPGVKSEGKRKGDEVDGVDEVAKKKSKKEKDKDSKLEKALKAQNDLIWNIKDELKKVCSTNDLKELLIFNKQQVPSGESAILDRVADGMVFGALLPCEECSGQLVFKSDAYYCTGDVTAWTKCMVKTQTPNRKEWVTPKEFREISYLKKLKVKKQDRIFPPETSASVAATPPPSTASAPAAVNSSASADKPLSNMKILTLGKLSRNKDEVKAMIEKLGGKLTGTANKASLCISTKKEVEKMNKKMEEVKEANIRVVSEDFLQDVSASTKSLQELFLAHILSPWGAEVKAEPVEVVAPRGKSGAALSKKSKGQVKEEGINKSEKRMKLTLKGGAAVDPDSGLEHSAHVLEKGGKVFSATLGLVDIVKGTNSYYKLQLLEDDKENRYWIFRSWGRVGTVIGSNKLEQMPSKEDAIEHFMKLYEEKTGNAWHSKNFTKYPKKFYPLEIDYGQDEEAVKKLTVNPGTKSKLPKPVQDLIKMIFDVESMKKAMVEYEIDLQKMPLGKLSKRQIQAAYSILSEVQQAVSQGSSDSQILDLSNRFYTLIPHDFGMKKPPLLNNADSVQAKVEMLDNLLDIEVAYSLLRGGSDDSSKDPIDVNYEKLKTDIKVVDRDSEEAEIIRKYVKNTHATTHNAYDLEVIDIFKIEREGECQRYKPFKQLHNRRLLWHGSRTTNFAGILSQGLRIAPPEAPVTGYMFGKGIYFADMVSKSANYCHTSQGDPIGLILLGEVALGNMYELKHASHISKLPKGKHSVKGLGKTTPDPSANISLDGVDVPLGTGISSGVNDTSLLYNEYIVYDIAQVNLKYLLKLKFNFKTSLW
# No constants are given. Whether binding was seen depends on the method and setting. Binding seen in cells or lysates may run through a third protein. A yes stands for co-enrichment or nearness to the bait. Other partners may have been found. Tags and fused reporters may be left off the sequences shown.
# Target: T1, human wild-type TREX1 (three-prime repair exonuclease 1), N-terminal 3x-FLAG tag (human) (UniProt Q9NSU2)
# T1 sequence: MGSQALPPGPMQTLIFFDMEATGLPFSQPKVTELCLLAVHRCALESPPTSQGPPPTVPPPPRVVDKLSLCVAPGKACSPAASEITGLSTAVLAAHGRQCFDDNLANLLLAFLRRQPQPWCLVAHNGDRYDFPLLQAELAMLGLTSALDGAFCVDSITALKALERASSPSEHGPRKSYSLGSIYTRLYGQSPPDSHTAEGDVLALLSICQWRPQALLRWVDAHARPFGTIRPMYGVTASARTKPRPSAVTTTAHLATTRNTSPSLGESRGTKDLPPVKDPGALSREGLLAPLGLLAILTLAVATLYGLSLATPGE
# Test: affinity purification with mass spectrometry; 3x-FLAG-TREX1 (WT or V235Gfs) transfected in HEK 293T; lysis in NP-40 buffer (50 mM HEPES pH 7.4, 150 mM NaCl, 1% NP-40); anti-FLAG M2 agarose beads, 4 °C, 4 h; silver-stained bands absent from the vector control excised, ion-trap mass spectrometry; one screen
substance,measurement,value
PARP1 (from UniProt P09874 1-1014),binding,binds
